Experimental findings from publication PMC3878975 are described below.

The target of the experiment is T1, peptide representing the N-terminus of Sec61 (…) (human).
T1 sequence (peptide): AIKFLEVIKPFC
Kind of experiment: SPR; BIAlite; Sec61 N-terminal peptide thiol-coupled on CM5 chip (measuring cell), TRAM N-terminal peptide in the control cell, difference shown; Sec62-C-6His 1 μM flowed at 10 μl/min in 10 mM HEPES-KOH pH 7.4, 150 mM NaCl, 2 mM MgCl, 6.4 mM KCl, 0.005% surfactant, without Ca2+ or with 2 mM Ca2+ (more pronounced binding without Ca2+); 1:1 binding models with mass transfer; both purified.

No constants are given. Whether binding was seen depends on the method and setting. A result given as binding can be weak or reduced; the word gives no strength.

As to “Sec62-C-6His, the C-terminal cytosolic domain of Sec62 (human) (domain or fragment)”, the binding result is recorded as “binds”.
